The results in this text go back to patent publication US7026134B2 (priority 2001, dated 2006).

In assay [1] the test system is IgG fraction of the antiserum raised to immunogen A (hapten A-BSA). In kind it is binding, sheep. The method, then:
Aqueous solutions of the immunogens prepared in Examples 7 and 8 were formulated with Freund's Complete Adjuvant (FCA) to form emulsions consisting of 4 mg/ml immunogen A and 2 mg/ml immunogen B in 50% (v/v) FCA. Three sheep were immunized with each emulsion (1° immunizations), 0.25 ml being subcutaneously injected at each of four sites in the flank of each animal. The next immunizations (first boosts) contained 2 mg/ml immunogen A and 1 mg/ml immunogen B. Subsequent immunizations (boosts […]) contained 1 mg/ml of each immunogen. All boosts were emulsified in 50% (v/v) Freund's Incomplete Adjuvant (FIA) and administered to the appropriate sheep in the same manner as the 1° immunizations, at monthly intervals for 1 year. Blood sampling took place 7 to 14 days after each boost. […] The IgG fraction was evaluated by competitive ELISA microtiter plate assay, as described in Example 12 below.
(a) The wells of an enhanced binding 96-well polystyrene microtiter plate were coated with the IgG fraction of the antiserum raised to immunogen A (hapten A-BSA) (Example 7), diluted in 10 mM Tris, pH8.5 (125 μl/well). The appropriate antibody coating dilution was determined using standard ELISA chequerboard techniques. […] The appropriate dilution of conjugate was also determined using standard ELISA chequerboard techniques. […] The absorbance was then measured at 450 nm using a microtiter plate reader.

The test system of assay [2] is IgG fraction of the antiserum raised to immunogen B (hapten B-BSA). Type of assay: binding, sheep.

Consider `CN1CC[C@]23c4c5ccc(O)c4O[C@H]2[C@@H](O)C=C[C@H]3[C@H]1C5` [Morphine], for which the “IC50, OP” value is greater than 0.5 µg/mL in assay [1] and greater than 2 µg/mL in assay [2].
